Binding data for six substances are collected here from PMC10318525.

Chains of the proteins cited; added tags and fusions are not shown. Lines headed by an entry give the natural chain unless they say otherwise; changes in a name come on top. Residues count along the entry.
UniProt Q16665: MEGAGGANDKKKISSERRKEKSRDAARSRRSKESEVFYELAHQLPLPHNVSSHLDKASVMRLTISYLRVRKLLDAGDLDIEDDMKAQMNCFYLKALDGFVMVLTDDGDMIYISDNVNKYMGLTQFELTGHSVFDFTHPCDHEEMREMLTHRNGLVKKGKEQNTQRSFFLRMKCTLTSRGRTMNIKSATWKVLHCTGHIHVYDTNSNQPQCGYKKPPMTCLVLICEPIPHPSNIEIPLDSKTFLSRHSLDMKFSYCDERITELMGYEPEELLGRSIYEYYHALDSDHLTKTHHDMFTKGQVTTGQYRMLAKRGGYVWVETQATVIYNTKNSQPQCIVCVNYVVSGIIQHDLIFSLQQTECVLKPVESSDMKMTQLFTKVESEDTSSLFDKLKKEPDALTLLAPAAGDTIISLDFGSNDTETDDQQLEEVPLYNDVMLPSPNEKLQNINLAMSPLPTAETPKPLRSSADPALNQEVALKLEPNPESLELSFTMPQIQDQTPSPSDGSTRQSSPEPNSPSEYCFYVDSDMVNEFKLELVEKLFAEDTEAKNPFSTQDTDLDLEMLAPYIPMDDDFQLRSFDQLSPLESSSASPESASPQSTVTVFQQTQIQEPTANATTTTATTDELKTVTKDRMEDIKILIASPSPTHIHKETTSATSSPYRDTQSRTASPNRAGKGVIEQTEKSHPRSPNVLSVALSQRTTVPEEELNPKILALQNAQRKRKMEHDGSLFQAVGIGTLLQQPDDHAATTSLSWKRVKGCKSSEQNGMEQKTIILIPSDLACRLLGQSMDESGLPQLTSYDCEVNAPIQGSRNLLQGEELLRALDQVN
GST-HIF-1α (201–329): residues 201-329 of Q16665
GST-HIF-1α (330–427): residues 330-427 of Q16665
GST-HIF-1α (428–531): residues 428-531 of Q16665
GST-HIF-1α (532–826): residues 532-826 of Q16665
UniProt Q9UNE7: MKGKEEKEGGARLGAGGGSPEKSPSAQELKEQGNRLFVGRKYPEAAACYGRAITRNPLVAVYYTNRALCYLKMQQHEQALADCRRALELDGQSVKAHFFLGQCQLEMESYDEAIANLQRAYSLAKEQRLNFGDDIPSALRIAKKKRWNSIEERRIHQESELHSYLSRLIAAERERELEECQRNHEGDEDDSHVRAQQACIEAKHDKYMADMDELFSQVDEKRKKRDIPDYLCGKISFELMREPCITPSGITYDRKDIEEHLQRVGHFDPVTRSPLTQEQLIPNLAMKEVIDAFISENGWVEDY
GST-CHIP (1–197): residues 1-197 of Q9UNE7
GST-CHIP (143–303): residues 143-303 of Q9UNE7
UniProt P61758: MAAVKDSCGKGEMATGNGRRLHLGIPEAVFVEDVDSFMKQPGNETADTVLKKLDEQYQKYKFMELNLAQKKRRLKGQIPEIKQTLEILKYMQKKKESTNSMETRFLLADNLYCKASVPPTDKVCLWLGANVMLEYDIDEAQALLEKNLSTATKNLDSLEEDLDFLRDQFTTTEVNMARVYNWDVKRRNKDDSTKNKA

Results are given in words; binding and its absence hold for the method and conditions named. In cells and extracts the contact can be indirect. Some binding calls cover weakened binding; strength is not graded here.

For test [1], the target named is HA-tagged HIF-1α (P402A/P564A) (human) (UniProt Q16665). The experiment in a line: co-IP; transiently transfected HEK293T/17 (for VBP1-Myc and Flag-HIF-1α also HeLa) cells, tagged proteins, reciprocal where indicated; IP lysis buffer 50 mM Tris pH 7.5, 150 mM NaCl, 1 mM EDTA, 10% glycerol, 1% Triton X-100; antibody overnight at 4 °C, Protein-A/G beads 6 h at 4 °C.
Another test addresses GST-HIF-1α (201–329) (UniProt Q16665). In words: pull-down; GST or GST fusion protein from E. coli BL21 on Glutathione Sepharose 4B, mixed with HEK293T/17 cell lysate for 2 h at 4 °C; lysis buffer 50 mM Tris pH 7.5, 150 mM NaCl, 1 mM EDTA, 10% glycerol, 1% Triton X-100; bound proteins detected by blot; only the target purified.
For another test, the target named is GST-CHIP (143–303) (UniProt Q9UNE7). The test is described as above.
In a further test the target is GST-HIF-1α (532–826) (UniProt Q16665). Described as above.
Another test concerns the target GST-CHIP (1–197) (UniProt Q9UNE7). The description is as above.
The next test has as its target GST-HIF-1α (428–531) (UniProt Q16665). Described as above.
The target of the next test is GST-HIF-1α (330–427) (UniProt Q16665). The description is as above.
Test [2] addresses endogenous VBP1 (human (endogenous in HEK293T/17)) (UniProt P61758). In words: co-IP; endogenous proteins of HEK293T/17 cells; anti-VBP1 antibody used for IP.
Another test concerns the target Flag-tagged VBP1 (UniProt P61758). The experiment in a line: co-IP; transiently transfected HEK293T/17 (for VBP1-Myc and Flag-HIF-1α also HeLa) cells, tagged proteins, reciprocal where indicated; IP lysis buffer 50 mM Tris pH 7.5, 150 mM NaCl, 1 mM EDTA, 10% glycerol, 1% Triton X-100; antibody overnight at 4 °C, Protein-A/G beads 6 h at 4 °C.
Another test addresses GST-VBP1 (UniProt P61758). In words: pull-down; GST or GST fusion protein from E. coli BL21 on Glutathione Sepharose 4B, mixed with HEK293T/17 cell lysate for 2 h at 4 °C; lysis buffer 50 mM Tris pH 7.5, 150 mM NaCl, 1 mM EDTA, 10% glycerol, 1% Triton X-100; bound proteins detected by blot; only the target purified.
The target in another test is Flag-HIF-1α (UniProt Q16665). In words: co-IP; transiently transfected HEK293T/17 (for VBP1-Myc and Flag-HIF-1α also HeLa) cells, tagged proteins, reciprocal where indicated; IP lysis buffer 50 mM Tris pH 7.5, 150 mM NaCl, 1 mM EDTA, 10% glycerol, 1% Triton X-100; antibody overnight at 4 °C, Protein-A/G beads 6 h at 4 °C.

Consider “Flag-tagged VBP1 (from UniProt P61758 1-197)”, for which the binding result (in test [1]; with GST-HIF-1α (201–329); with GST-CHIP (143–303); with GST-HIF-1α (532–826); in the test with GST-CHIP (1–197); in the test with GST-HIF-1α (428–531)) was “binds” in each case. Also, the binding result in the test with GST-HIF-1α (330–427) is recorded as “binds”.

As for “endogenous CHIP (from UniProt Q9UNE7 1-303)”, the binding result in [2] is listed as “binds”.

In the case of “HA-tagged CHIP (from UniProt Q9UNE7 1-303)”, the binding entry with Flag-tagged VBP1 is “binds”.

For the substance “endogenous HIF-1α (from UniProt Q16665 1-826)”, the binding result in test [2] is given as “binds”.

Consider “HIF-1α (in the HEK293T/17 lysate of the GST-VBP1 pull-down) (from UniProt Q16665 1-826)”, for which, in the test with GST-VBP1, the binding entry is “binds”.

On to VBP1-Myc (from UniProt P61758 1-197), for which the binding result with Flag-HIF-1α is on record as “binds”.
